Laboratory results from the supplement of paper PMC10849652.
The other results are listed elsewhere or left out.

By UniProt entry, the sequences of proteins in these tests, tags left out. Where a name states a change or a piece, a line headed by the entry shows the natural chain unless it says otherwise.
UniProt Q9NWB6: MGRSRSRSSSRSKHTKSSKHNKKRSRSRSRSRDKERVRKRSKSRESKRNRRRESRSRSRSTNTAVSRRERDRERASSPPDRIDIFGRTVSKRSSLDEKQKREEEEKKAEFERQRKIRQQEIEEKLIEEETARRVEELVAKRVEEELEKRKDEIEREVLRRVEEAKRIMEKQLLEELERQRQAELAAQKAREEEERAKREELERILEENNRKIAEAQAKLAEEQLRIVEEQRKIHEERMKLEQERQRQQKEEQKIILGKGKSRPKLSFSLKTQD
UniProt P27695, whole entry, looked up: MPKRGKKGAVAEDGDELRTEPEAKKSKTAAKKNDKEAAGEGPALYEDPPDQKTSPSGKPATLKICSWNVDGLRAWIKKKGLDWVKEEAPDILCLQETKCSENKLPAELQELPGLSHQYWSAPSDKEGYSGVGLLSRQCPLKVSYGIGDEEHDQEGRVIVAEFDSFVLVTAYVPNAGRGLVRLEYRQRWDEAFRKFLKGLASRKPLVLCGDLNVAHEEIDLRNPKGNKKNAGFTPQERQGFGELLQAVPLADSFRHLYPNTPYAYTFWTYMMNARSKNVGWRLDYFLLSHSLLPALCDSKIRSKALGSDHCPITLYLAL
UniProt O00203: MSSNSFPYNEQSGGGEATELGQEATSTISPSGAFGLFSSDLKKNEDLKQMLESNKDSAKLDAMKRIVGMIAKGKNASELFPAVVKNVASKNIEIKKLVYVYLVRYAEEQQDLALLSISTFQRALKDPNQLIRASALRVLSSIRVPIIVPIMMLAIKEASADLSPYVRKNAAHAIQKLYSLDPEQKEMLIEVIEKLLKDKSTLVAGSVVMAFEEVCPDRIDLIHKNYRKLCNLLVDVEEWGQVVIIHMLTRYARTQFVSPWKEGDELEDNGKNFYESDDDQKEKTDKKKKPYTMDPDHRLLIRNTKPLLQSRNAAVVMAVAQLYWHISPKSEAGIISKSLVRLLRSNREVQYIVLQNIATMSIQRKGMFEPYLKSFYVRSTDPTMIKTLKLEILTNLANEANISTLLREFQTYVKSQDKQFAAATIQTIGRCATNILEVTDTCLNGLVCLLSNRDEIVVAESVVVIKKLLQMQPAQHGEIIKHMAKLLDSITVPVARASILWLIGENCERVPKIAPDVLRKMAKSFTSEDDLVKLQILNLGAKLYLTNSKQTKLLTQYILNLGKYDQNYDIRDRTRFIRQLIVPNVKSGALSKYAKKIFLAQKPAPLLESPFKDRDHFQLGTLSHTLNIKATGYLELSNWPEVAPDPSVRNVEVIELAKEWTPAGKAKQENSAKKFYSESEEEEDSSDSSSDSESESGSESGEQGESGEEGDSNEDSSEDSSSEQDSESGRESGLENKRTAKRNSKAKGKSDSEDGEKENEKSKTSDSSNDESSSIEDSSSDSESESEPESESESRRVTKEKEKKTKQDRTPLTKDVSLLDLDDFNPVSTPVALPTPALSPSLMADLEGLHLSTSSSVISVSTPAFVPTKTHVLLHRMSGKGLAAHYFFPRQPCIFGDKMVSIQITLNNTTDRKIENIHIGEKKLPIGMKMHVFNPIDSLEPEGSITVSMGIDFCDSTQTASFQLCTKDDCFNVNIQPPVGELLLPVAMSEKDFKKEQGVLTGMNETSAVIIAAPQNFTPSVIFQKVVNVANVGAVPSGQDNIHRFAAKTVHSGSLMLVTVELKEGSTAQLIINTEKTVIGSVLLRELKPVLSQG
UniProt P58335, whole entry, looked up: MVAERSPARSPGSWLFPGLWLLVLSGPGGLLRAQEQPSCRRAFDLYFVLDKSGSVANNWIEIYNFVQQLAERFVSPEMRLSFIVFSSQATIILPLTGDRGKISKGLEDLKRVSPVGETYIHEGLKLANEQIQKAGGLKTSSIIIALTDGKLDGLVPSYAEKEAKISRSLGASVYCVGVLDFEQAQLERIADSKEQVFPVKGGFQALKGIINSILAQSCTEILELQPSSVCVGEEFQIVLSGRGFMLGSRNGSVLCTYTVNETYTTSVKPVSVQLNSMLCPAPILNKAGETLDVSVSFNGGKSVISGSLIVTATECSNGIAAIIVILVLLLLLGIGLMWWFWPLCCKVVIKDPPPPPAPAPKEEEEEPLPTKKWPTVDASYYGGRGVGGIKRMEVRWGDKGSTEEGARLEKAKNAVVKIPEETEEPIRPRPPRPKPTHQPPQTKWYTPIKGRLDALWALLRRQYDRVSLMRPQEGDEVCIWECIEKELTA
UniProt P08133: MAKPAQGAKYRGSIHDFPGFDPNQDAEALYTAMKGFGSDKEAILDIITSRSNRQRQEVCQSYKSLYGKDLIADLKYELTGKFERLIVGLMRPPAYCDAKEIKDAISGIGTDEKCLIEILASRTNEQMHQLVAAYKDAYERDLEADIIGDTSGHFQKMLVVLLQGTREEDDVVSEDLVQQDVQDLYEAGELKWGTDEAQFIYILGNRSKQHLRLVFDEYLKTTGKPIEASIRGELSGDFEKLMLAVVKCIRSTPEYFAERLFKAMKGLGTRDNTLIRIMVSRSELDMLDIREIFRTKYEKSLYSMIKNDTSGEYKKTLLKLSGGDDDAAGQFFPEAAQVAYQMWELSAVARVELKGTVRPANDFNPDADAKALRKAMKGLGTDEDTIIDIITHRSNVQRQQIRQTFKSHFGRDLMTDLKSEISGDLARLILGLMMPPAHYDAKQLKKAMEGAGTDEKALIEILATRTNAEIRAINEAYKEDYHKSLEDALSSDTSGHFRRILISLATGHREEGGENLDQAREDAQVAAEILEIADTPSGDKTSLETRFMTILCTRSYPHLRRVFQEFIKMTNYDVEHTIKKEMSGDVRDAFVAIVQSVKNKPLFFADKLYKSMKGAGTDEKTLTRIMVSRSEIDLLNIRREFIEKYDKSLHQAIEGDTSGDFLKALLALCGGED
UniProt Q9NW15: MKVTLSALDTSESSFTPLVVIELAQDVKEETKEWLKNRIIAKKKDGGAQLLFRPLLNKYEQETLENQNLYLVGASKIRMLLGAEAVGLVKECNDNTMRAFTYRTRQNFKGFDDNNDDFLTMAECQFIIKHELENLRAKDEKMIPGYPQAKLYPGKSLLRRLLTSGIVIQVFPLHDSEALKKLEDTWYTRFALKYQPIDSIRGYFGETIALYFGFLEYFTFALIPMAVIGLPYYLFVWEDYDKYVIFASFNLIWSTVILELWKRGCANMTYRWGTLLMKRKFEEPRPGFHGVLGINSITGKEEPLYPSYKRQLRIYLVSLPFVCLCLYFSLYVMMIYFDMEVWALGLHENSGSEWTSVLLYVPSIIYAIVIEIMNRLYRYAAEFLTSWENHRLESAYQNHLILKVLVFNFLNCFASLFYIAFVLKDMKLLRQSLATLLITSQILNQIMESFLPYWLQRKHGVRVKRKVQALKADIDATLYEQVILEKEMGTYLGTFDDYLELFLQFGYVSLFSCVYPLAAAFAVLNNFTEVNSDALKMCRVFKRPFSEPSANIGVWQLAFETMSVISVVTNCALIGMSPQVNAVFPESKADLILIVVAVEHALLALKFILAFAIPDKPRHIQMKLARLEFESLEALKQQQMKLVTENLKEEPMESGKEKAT
UniProt Q9H8Y5: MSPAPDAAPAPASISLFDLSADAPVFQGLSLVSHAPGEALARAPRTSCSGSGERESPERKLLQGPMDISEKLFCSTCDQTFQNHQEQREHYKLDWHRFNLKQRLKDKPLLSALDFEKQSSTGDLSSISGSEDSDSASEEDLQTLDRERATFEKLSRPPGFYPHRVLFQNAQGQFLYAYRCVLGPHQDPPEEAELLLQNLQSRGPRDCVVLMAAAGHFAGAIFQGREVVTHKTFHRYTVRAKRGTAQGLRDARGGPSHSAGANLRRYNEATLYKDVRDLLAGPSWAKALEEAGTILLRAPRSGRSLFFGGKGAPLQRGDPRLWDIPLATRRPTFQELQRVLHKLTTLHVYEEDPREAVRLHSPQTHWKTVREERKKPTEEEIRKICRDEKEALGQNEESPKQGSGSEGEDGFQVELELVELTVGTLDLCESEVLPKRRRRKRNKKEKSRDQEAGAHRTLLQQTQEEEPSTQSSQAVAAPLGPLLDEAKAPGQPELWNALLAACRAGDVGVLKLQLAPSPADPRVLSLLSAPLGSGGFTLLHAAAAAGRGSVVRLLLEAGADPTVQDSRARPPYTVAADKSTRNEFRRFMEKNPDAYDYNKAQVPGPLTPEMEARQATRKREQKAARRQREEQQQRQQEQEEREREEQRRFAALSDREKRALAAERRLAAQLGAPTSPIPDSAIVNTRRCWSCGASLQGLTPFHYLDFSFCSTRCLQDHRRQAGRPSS
UniProt Q9UJX6, whole entry, looked up: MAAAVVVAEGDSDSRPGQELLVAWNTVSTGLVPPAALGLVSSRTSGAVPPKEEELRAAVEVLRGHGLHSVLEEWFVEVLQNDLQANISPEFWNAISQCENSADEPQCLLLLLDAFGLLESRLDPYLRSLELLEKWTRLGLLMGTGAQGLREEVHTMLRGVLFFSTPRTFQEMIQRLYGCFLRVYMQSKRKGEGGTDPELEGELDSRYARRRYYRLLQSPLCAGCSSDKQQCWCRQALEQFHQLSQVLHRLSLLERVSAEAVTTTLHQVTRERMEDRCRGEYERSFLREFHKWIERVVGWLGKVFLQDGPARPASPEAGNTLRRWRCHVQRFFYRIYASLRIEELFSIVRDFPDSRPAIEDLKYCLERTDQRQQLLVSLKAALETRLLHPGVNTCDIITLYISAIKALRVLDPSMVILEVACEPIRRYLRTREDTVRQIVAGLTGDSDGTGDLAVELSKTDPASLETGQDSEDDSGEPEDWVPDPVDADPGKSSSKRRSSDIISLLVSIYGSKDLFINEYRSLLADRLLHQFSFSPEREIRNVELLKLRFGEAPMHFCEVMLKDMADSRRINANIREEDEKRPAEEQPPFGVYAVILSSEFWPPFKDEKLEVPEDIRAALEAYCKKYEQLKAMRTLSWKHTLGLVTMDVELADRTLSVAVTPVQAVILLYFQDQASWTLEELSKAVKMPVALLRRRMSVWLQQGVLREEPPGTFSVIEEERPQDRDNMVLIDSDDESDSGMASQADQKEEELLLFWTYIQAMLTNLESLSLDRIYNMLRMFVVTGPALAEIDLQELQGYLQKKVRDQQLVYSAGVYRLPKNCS
UniProt P62330: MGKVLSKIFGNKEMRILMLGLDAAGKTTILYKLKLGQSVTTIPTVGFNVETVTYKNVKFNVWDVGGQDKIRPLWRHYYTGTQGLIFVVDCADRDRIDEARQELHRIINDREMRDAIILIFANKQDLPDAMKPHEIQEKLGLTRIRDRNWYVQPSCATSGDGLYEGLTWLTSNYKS
UniProt Q4LE39: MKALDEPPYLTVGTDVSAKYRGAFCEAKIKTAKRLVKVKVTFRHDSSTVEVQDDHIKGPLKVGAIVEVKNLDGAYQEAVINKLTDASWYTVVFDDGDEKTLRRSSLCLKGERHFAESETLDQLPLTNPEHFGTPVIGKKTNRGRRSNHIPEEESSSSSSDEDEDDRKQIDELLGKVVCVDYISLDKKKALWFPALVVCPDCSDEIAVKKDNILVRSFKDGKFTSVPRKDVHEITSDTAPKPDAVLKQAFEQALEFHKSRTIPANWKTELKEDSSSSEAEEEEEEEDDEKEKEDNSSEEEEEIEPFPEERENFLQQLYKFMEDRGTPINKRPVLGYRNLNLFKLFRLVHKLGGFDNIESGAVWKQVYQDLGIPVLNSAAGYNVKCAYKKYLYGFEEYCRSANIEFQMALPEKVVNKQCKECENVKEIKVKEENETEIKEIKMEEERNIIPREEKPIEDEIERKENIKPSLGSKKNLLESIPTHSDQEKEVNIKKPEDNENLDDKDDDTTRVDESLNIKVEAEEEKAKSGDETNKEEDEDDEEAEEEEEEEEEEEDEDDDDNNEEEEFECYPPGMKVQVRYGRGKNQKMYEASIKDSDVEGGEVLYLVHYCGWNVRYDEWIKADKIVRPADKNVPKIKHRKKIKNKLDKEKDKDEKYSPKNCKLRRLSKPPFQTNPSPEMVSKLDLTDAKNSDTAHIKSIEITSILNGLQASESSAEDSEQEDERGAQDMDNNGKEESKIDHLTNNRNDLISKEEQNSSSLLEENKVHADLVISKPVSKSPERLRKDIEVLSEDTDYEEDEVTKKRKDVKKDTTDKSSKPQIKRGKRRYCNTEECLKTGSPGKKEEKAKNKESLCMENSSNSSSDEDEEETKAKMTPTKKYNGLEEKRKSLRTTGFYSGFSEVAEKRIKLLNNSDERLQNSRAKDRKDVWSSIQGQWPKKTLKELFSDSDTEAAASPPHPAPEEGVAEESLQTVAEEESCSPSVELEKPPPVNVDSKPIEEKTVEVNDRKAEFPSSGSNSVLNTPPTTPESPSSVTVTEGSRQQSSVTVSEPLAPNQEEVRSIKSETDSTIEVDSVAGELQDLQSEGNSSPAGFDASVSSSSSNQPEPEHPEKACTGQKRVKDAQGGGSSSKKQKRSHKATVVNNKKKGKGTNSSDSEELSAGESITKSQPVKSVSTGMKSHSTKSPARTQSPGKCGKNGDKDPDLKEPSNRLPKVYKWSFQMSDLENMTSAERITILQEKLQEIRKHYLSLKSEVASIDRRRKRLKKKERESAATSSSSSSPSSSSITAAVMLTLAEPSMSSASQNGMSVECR

Columns and labels:
Assay in all cases: log2 fold change, soluble protein after heating vs DMSO (PISA); higher = thermal stabilisation; K562 cells, 10 uM, 30 min; active = over 0.2 and 3.5 SD of the protein, either way, in both replicates (recomputed)
[1] = compound: COC1=CC=C(C=C1)CN2C=CC3=C2C=C(C=C3)C(=O)NO
Summary of the method: (§1)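 K562 cells at 2×10^6 cells/mL were treated with 10 μM compound for 30 min. Aliquots were heated for 3 min across 48°C-58°C, pooled, and extracted in PBS with 0.5% NP-40 at 4°C; soluble protein was the supernatant after 21,000xg for 90 min. Soluble protein was quantified by TMTpro 16plex LC-MS/MS with channel sums equalised, and reported as log2 fold change in thermal stability against DMSO controls, with values from duplicates.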

filanesib = compound: CON(C)C(=O)N1N=C(c2cc(F)ccc2F)S[C@@]1(CCCN)c1ccccc1 [filanesib]
Summary of the method: as §1

zotarolimus = compound: CO[C@H]1C[C@@H]2CC[C@@H](C)[C@@](O)(O2)C(=O)C(=O)N2CCCC[C@H]2C(=O)O[C@H]([C@H](C)C[C@@H]2CC[C@H](n3cnnn3)[C@H](OC)C2)CC(=O)[C@H](C)/C=C(\C)[C@@H](O)[C@@H](OC)C(=O)[C@H](C)C[C@H](C)/C=C/C=C/C=C/1C [zotarolimus]
Summary of the method: as §1

idasanutlin = compound: COc1cc(C(=O)O)ccc1NC(=O)[C@@H]1N[C@@H](CC(C)(C)C)[C@](C#N)(c2ccc(Cl)cc2F)[C@H]1c1cccc(Cl)c1F [idasanutlin]
Summary of the method: as §1

alisertib = compound: COc1cc(Nc2ncc3c(n2)-c2ccc(Cl)cc2C(c2c(F)cccc2OC)=NC3)ccc1C(=O)O [alisertib]
Summary of the method: as §1

[2] = compound: COc1cc2nc(-c3cc(F)ccc3O)nc(N[C@@H]3CNC[C@H]3C(C)(C)O)c2cc1OC
Summary of the method: as §1

gefitinib = compound: COc1cc2ncnc(Nc3ccc(F)c(Cl)c3)c2cc1OCCCN1CCOCC1 [gefitinib]
Summary of the method: as §1

[3] = compound: COc1cccc2cc(-c3nc([C@H]4CC[C@H](C(=O)O)CC4)n4ncnc(N)c34)[nH]c12
Summary of the method: as §1

lapatinib = compound: CS(=O)(=O)CCNCc1ccc(-c2ccc3ncnc(Nc4ccc(OCc5cccc(F)c5)c(Cl)c4)c3c2)o1 [lapatinib]
Summary of the method: as §1

pictilisib = compound: CS(=O)(=O)N1CCN(Cc2cc3nc(-c4cccc5[nH]ncc45)nc(N4CCOCC4)c3s2)CC1 [pictilisib]
Summary of the method: as §1

ANKHD1 isoform 6 (UniProt Q8IWZ3)
log2 fold change [1]: inactive: -0.089
log2 fold change (filanesib): inactive: 0.227
log2 fold change (zotarolimus): inactive: 0.046
log2 fold change (idasanutlin): inactive: 0.151
log2 fold change (alisertib): inactive: -0.073
log2 fold change [2]: inactive: -0.186
log2 fold change (gefitinib): inactive: 0.081
log2 fold change [3]: inactive: -0.09
log2 fold change (lapatinib): inactive: 0.034
log2 fold change (pictilisib): inactive: -0.035

ARGLU1 (UniProt Q9NWB6)
log2 fold change [1]: inactive: 0.066
log2 fold change (filanesib): inactive: 0.207
log2 fold change (zotarolimus): inactive: 0.025
log2 fold change (idasanutlin): inactive: 0.171
log2 fold change (alisertib): inactive: -0.13
log2 fold change [2]: inactive: 0.05
log2 fold change (gefitinib): inactive: 0.212
log2 fold change [3]: inactive: 0.031
log2 fold change (lapatinib): inactive: 0.062
log2 fold change (pictilisib): inactive: -0.027

AP4E1 (UniProt Q9UPM8)
log2 fold change [1]: inactive: -0.068
log2 fold change (filanesib): inactive: 0.081
log2 fold change (zotarolimus): inactive: 0.128
log2 fold change (idasanutlin): inactive: 0.006
log2 fold change (alisertib): inactive: 0.054
log2 fold change [2]: inactive: -0.067
log2 fold change (gefitinib): inactive: 0.153
log2 fold change [3]: inactive: 0.038
log2 fold change (lapatinib): inactive: 0.14
log2 fold change (pictilisib): inactive: 0.016

APEX1 (UniProt P27695)
log2 fold change [1]: inactive: 0.064
log2 fold change (filanesib): inactive: -0.107
log2 fold change (zotarolimus): inactive: 0.057
log2 fold change (idasanutlin): inactive: -0.009
log2 fold change (alisertib): inactive: -0.096
log2 fold change [2]: inactive: 0.101
log2 fold change (gefitinib): inactive: -0.035
log2 fold change [3]: inactive: 0.006
log2 fold change (lapatinib): inactive: -0.015
log2 fold change (pictilisib): inactive: 0.017

ANAPC16 (UniProt Q96DE5)
log2 fold change [1]: inactive: 0.064
log2 fold change (filanesib): inactive: 0.147
log2 fold change (zotarolimus): inactive: 0.093
log2 fold change (idasanutlin): inactive: -0.01
log2 fold change (alisertib): inactive: -0.08
log2 fold change [2]: inactive: -0.04
log2 fold change (gefitinib): inactive: 0.008
log2 fold change [3]: inactive: -0.056
log2 fold change (lapatinib): inactive: 0.03
log2 fold change (pictilisib): inactive: 0.02

ARHGAP18 (UniProt Q8N392)
log2 fold change [1]: inactive: 0.106
log2 fold change (filanesib): inactive: 0.018
log2 fold change (zotarolimus): inactive: 0.022
log2 fold change (idasanutlin): inactive: -0.08
log2 fold change (alisertib): inactive: -0.056
log2 fold change [2]: inactive: 0.244
log2 fold change (gefitinib): inactive: -0.02
log2 fold change [3]: inactive: -0.076
log2 fold change (lapatinib): inactive: -0.025
log2 fold change (pictilisib): inactive: 0.107

AP2M1 (UniProt Q96CW1)
log2 fold change [1]: inactive: -0.008
log2 fold change (filanesib): inactive: 0.048
log2 fold change (zotarolimus): inactive: 0.017
log2 fold change (idasanutlin): inactive: -0.018
log2 fold change (alisertib): inactive: -0.06
log2 fold change [2]: inactive: 0.01
log2 fold change (gefitinib): inactive: 0.032
log2 fold change [3]: inactive: 0.01
log2 fold change (lapatinib): inactive: 0.014
log2 fold change (pictilisib): inactive: -0.021

AP3B1 (UniProt O00203)
log2 fold change [1]: inactive: 0.025
log2 fold change (filanesib): inactive: -0.018
log2 fold change (zotarolimus): inactive: 0.019
log2 fold change (idasanutlin): inactive: -0.04
log2 fold change (alisertib): inactive: -0.03
log2 fold change [2]: inactive: 0.063
log2 fold change (gefitinib): inactive: 0.007
log2 fold change [3]: inactive: -0.05
log2 fold change (lapatinib): inactive: -0.003
log2 fold change (pictilisib): inactive: 0.01

ANTXR2 isoform 4 (UniProt P58335)
log2 fold change [1]: inactive: 0.025
log2 fold change (filanesib): inactive: 0.014
log2 fold change (zotarolimus): inactive: -0.016
log2 fold change (idasanutlin): inactive: 0.019
log2 fold change (alisertib): inactive: -0.015
log2 fold change [2]: inactive: -0.034
log2 fold change (gefitinib): inactive: 0.01
log2 fold change [3]: inactive: 0.064
log2 fold change (lapatinib): inactive: -0.018
log2 fold change (pictilisib): inactive: 0.09

ANXA6 (UniProt P08133)
log2 fold change [1]: inactive: -0.011
log2 fold change (filanesib): inactive: -0.023
log2 fold change (zotarolimus): inactive: 0.002
log2 fold change (idasanutlin): inactive: -0.041
log2 fold change (alisertib): inactive: -0.012
log2 fold change [2]: inactive: 0.069
log2 fold change (gefitinib): inactive: 0.014
log2 fold change [3]: inactive: 0.039
log2 fold change (lapatinib): inactive: 0
log2 fold change (pictilisib): inactive: -0.001

ANO10 (UniProt Q9NW15)
log2 fold change [1]: inactive: -0.016
log2 fold change (filanesib): inactive: -0.093
log2 fold change (zotarolimus): inactive: -0.001
log2 fold change (idasanutlin): inactive: -0.074
log2 fold change (alisertib): inactive: -0.014
log2 fold change [2]: inactive: 0.067
log2 fold change (gefitinib): inactive: 0.006
log2 fold change [3]: inactive: -0.008
log2 fold change (lapatinib): inactive: -0.002
log2 fold change (pictilisib): inactive: 0.049

ANKZF1 (UniProt Q9H8Y5)
log2 fold change [1]: inactive: -0.005
log2 fold change (filanesib): inactive: 0.249
log2 fold change (zotarolimus): inactive: 0.048
log2 fold change (idasanutlin): inactive: 0.235
log2 fold change (alisertib): inactive: -0.034
log2 fold change [2]: inactive: 0.042
log2 fold change (gefitinib): inactive: -0.001
log2 fold change [3]: inactive: -0.022
log2 fold change (lapatinib): inactive: -0.046
log2 fold change (pictilisib): inactive: -0.002

ANAPC2 (UniProt Q9UJX6)
log2 fold change [1]: inactive: 0.026
log2 fold change (filanesib): inactive: -0.042
log2 fold change (zotarolimus): inactive: 0.012
log2 fold change (idasanutlin): inactive: -0.047
log2 fold change (alisertib): inactive: -0.074
log2 fold change [2]: inactive: -0.038
log2 fold change (gefitinib): inactive: -0.034
log2 fold change [3]: inactive: -0.004
log2 fold change (lapatinib): inactive: 0.059
log2 fold change (pictilisib): inactive: 0.015

ARCN1 (UniProt P48444)
log2 fold change [1]: inactive: 0.001
log2 fold change (filanesib): inactive: 0.016
log2 fold change (zotarolimus): inactive: 0.002
log2 fold change (idasanutlin): inactive: -0.005
log2 fold change (alisertib): inactive: -0.051
log2 fold change [2]: inactive: 0.079
log2 fold change (gefitinib): inactive: 0.042
log2 fold change [3]: inactive: -0.006
log2 fold change (lapatinib): inactive: 0.003
log2 fold change (pictilisib): inactive: 0.02

ARF6 (UniProt P62330)
log2 fold change [1]: inactive: -0.065
log2 fold change (filanesib): inactive: 0.025
log2 fold change (zotarolimus): inactive: -0.024
log2 fold change (idasanutlin): inactive: -0.047
log2 fold change (alisertib): inactive: 0.009
log2 fold change [2]: inactive: 0.169
log2 fold change (gefitinib): inactive: 0.026
log2 fold change [3]: inactive: 0.125
log2 fold change (lapatinib): inactive: -0.008
log2 fold change (pictilisib): inactive: -0.117

ARFRP1 (UniProt Q13795)
log2 fold change [1]: inactive: 0.127
log2 fold change (filanesib): active: -0.261
log2 fold change (zotarolimus): inactive: 0.02
log2 fold change (idasanutlin): inactive: -0.168
log2 fold change (alisertib): inactive: 0.111
log2 fold change [2]: inactive: 0.039
log2 fold change (gefitinib): inactive: -0.016
log2 fold change [3]: inactive: -0.024
log2 fold change (lapatinib): inactive: 0.071
log2 fold change (pictilisib): inactive: 0.168

APOL2 (UniProt J3KQL8)
log2 fold change (filanesib): inactive: -0.004
log2 fold change (zotarolimus): inactive: -0.055
log2 fold change (idasanutlin): inactive: 0.02
log2 fold change (alisertib): inactive: -0.016
log2 fold change [2]: inactive: 0.048
log2 fold change (gefitinib): inactive: 0.029
log2 fold change [3]: inactive: -0.034
log2 fold change (lapatinib): inactive: -0.048
log2 fold change (pictilisib): inactive: -0.013

ARHGAP22 isoform 2 (UniProt Q7Z5H3)
log2 fold change (filanesib): inactive: -0.135
log2 fold change [2]: inactive: 0.116
log2 fold change (lapatinib): inactive: -0.162
log2 fold change (pictilisib): inactive: 0.095

ARID4B (UniProt Q4LE39)
log2 fold change (alisertib): inactive: -0.101
log2 fold change [3]: inactive: -0.167

ARHGAP35 (UniProt Q9NRY4)
log2 fold change [1]: inactive: 0.026
log2 fold change (zotarolimus): inactive: 0.025
log2 fold change (idasanutlin): inactive: 0.065
log2 fold change (alisertib): inactive: -0.016
log2 fold change [2]: inactive: 0.143
log2 fold change [3]: inactive: -0.08
log2 fold change (lapatinib): inactive: 0.04
log2 fold change (pictilisib): inactive: -0.085
